Laboratory results from publication PMC9859813.
No constants are given. Whether binding was seen depends on the method and setting. Binding seen in cells or lysates may run through a third protein. A result given as binding can be weak or reduced; the word gives no strength. Where a sequence is shown, tags or fusion partners need not be part of it.

Biological target: C-terminal recombinant of TRIM15 (GST fusion)
Assay: pull-down; GST fusion proteins immobilised on anti-GST magnetic beads, incubated with cell lysates (RIPA buffer) for 4 h; washed four times; Western blot; only the target purified

B1: HA-LASP1 (protein, UniProt Q14847 1-261)
chain: MNPNCARCGKIVYPTEKVNCLDKFWHKACFHCETCKMTLNMKNYKGYEKKPYCNAHYPKQSFTMVADTPENLRLKQQSELQSQVRYKEEFEKNKGKGFSVVADTPELQRIKKTQDQISNIKYHEEFEKSRMGPSGGEGMEPERRDSQDGSSYRRPLEQQQPHHIPTSAPVYQQPQQQPVAQSYGGYKEPAAPVSIQRSAPGGGGKRYRAVYDYSAADEDEVSFQDGDTIVNVQQIDDGWMYGTVERTGDTGMLPANYVEAI
With B1 the binding was “binds”.
